Patent US20020146750A1
Where a chain is given by its changes, count along the chain named. These are yes or no findings as the source states them, for the method shown. Some results given as binding are weak or reduced against the parent protein; the word gives no strength. Values belong to the binder of their own block, whether it stands above or below them.

How the values were obtained:
[1] = target: MUC1 60-mer peptide NH2-(…)3-COOH; test: ELISA, soluble Fab, biotinylated MUC1 60-mer; relative signal
[2] = target: MUC1 60-mer peptide NH2-(…)3-COOH; test: ELISA, Fab, biotinylated MUC1 60-mer

binding [1]: binds
B1: 10A8 (Fab, V domains shown)
VH: QVQLVQSGGGLVQPGGSLRLSCAASGFTFRSNAMGWVRQAPGKGLEWVSGISGSGGSTYYADSVKGRFTISRDNSKNTLYLQMNSLRAEDTAVYYCARHTGGGVWDPIGYWGQGTLVTVSS
VL: EIVLTQSPLSLPVTPGEPASISCRSSQSLLHSNGYTYLDWYLQKPGQSPQLLIYSGSHRASGVPDRFSGSVSGTDFTLRISRVEAEDVGVYYCMQGLQSPFTFGPGTKVDIKR

binding [2]: binds
B2: clone 7G8 (HSPOT library) (Fab, V domains shown)
VH: B1 VH with S31N, R98K, G109D
VL: B1 VL

binding [2]: binds
B3: clone 10G9 (HSPOT library) (Fab, V domains shown)
VH: B1 VH with S31R, R98K, G109D
VL: B1 VL
